According to the supplement of paper PMC6078165:
Values are relative to the signal before dosing, not to a vehicle control; the signal also falls without drug.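 The cancer cells are triple-negative breast cancer lines of basal-like or mesenchymal-like type, grown without fibroblasts. A drop in red signal reflects loss of mitochondrial integrity, a stand-in for apoptotic death.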

What was measured:
Experiment in all cases: relative JC-1 red fluorescence (viability) vs pre-drug, monoculture (fraction); higher = more viable cancer cells
Conditions in all cases: coculture fibroblast: none (monoculture)
[1] = system: MDAMB468
Protocol: (§1)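 JC-1 labelled TNBC cells grown in monoculture (density kept equal with unlabelled cancer cells) in 384-well plates in FluoroBrite medium, treated with one of 42 anticancer drugs at 0.1, 1, 10 or 100 uM. JC-1 red fluorescence (mitochondrial integrity, surrogate of apoptotic death) was read by plate reader every 8 h for 72 h. Values are normalised to each well's pre-drug value, with background from alamethicin. The stock of one drug was tenfold lower, so its dose labels may be too high. Monoculture values are repeated alongside each fibroblast plate and are averaged here.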

[2] = system: BT20
Protocol: as §1

[3] = system: HCC1143
Protocol: as §1

[4] = system: Hs578T
Protocol: as §1

O=NN(CCCl)C(=O)NC1CCCCC1 [Lomustine]
relative JC-1 red fluorescence
Conditions	8 h	16 h	24 h	32 h	40 h	48 h	56 h	64 h	72 h
[1], 0.1 µM	0.8522	0.7409	0.71	0.634	0.596	0.567	0.53267	0.5078	0.4939
[1], 1 µM	0.895	0.847	0.787	0.717	0.692	0.672	0.647	0.622	0.62
[1], 10 µM	0.775	0.69	0.655	0.581	0.544	0.541	0.514	0.495	0.486
[1], 100 µM	0.837	0.599	0.555	0.502	0.4695	0.472	0.444	0.434	0.435
[2], 0.1 µM	0.927	0.841	0.826	0.757	0.7237	0.714	0.692	0.7	0.694
[2], 1 µM	0.9604	0.8835	0.812	0.729	0.678	0.653	0.62	0.602	0.586
[2], 10 µM	0.895	0.8324	0.8289	0.7649	0.7418	0.7244	0.7109	0.713	0.717
[2], 100 µM	0.859	0.806	0.852	0.814	0.797	0.806	0.786	0.791	0.791
[3], 0.1 µM	0.869	0.778	0.722	0.681	0.647	0.621	0.607	0.606	0.598
[3], 1 µM	0.885	0.792	0.7246	0.6746	0.6326	0.601	0.568	0.547	0.536
[3], 10 µM	0.859	0.779	0.737	0.681	0.65	0.63	0.623	0.614	0.614
[3], 100 µM	0.808	0.723	0.674	0.627	0.599	0.586	0.568	0.569	0.567
[4], 0.1 µM	0.83395	0.684	0.661	0.584	0.547	0.526	0.501	0.49	0.483
[4], 1 µM	0.8474	0.738	0.664	0.599	0.546	0.517	0.488	0.482	0.471
[4], 10 µM	0.823	0.666	0.637	0.565	0.526	0.499	0.483	0.474	0.475
[4], 100 µM	0.712	0.605	0.592	0.529	0.489	0.472	0.455	0.457	0.452

O=C1c2c(O)ccc(O)c2C(=O)c2c(NCCNCCO)ccc(NCCNCCO)c21 [Mitoxantrone]
relative JC-1 red fluorescence
Conditions	8 h	16 h	24 h	32 h	40 h	48 h	56 h	64 h	72 h
[1], 0.1 µM	0.829	0.781	0.732	0.701	0.688	0.665	0.639	0.622	0.602
[1], 1 µM	0.7505	0.668	0.815	0.855	0.777	0.792	0.747	0.708	0.692
[1], 10 µM	0.864	0.836	0.69	0.566	0.64	0.551	0.446	0.352	0.261
[2], 0.1 µM	0.786	0.737	0.632	0.5641	0.5434	0.5283	0.515	0.51	0.506
[2], 1 µM	0.4606	0.374	0.475	0.464	0.481	0.472	0.448	0.45	0.437
[2], 10 µM	0.342	0.614	0.724	0.606	0.521	0.453	0.375	0.307	0.256
[3], 0.1 µM	0.8277	0.762	0.719	0.684	0.659	0.631	0.613	0.608	0.589
[3], 1 µM	0.594	0.469	0.479	0.474	0.471	0.471	0.471	0.481	0.471
[3], 10 µM	0.448	0.472	0.706	0.868	0.808	0.713	0.6	0.496	0.409
[4], 0.1 µM	0.7406	0.6651	0.611	0.585	0.566	0.543	0.534	0.54	0.532
[4], 1 µM	0.439	0.3479	0.408	0.351	0.343	0.339	0.323	0.327	0.319
[4], 10 µM	0.5554	0.554	0.576	0.411	0.304	0.236	0.174	0.122	0.0739

CO[C@H]1C[C@@H]2CC[C@@H](C)[C@@](O)(O2)C(=O)C(=O)N2CCCC[C@H]2C(=O)O[C@H]([C@H](C)C[C@@H]2CC[C@@H](O)[C@H](OC)C2)CC(=O)[C@H](C)/C=C(\C)[C@@H](O)[C@@H](OC)C(=O)[C@H](C)C[C@H](C)/C=C/C=C/C=C/1C [Rapamycin]
relative JC-1 red fluorescence
Conditions	8 h	16 h	24 h	32 h	40 h	48 h	56 h	64 h	72 h
[1], 0.1 µM	0.894	0.818	0.751	0.659	0.631	0.605	0.57	0.544	0.527
[1], 1 µM	0.903	0.808	0.795	0.747	0.705	0.69	0.6581	0.644	0.632
[1], 10 µM	0.903	0.9237	0.918	0.791	0.732	0.678	0.603	0.566	0.54
[1], 100 µM	0.878	0.744	0.592	0.427	0.366	0.315	0.224	0.153	0.175
[2], 0.1 µM	0.948	0.898	0.839	0.762	0.722	0.686	0.652	0.633	0.628
[2], 1 µM	0.937	0.858	0.794	0.739	0.694	0.659	0.626	0.616	0.596
[2], 10 µM	0.909	0.903	0.872	0.847	0.846	0.819	0.79	0.77	0.75
[2], 100 µM	0.9535	0.967	0.814	0.906	0.86	0.807	0.726	0.644	0.556
[3], 0.1 µM	0.8966	0.809	0.7347	0.68487	0.63	0.6048	0.579	0.572	0.56
[3], 1 µM	0.8888	0.8209	0.74	0.679	0.616	0.578	0.551	0.525	0.517
[3], 10 µM	0.781	0.795	0.79	0.77	0.741	0.725	0.719	0.714	0.698
[3], 100 µM	0.797	0.672	0.563	0.478	0.411	0.357	0.26	0.184	0.21
[4], 0.1 µM	0.8674	0.769	0.724	0.656	0.62	0.612	0.579	0.59	0.583
[4], 1 µM	0.826	0.744	0.7225	0.655	0.605	0.5893	0.5689	0.5694	0.563
[4], 10 µM	0.856	0.885	0.859	0.84	0.795	0.782	0.754	0.738	0.733
[4], 100 µM	0.885	0.848	0.805	0.857	0.893	0.828	0.6904	0.483	0.385
